Results from the supplement of paper PMC10849652.
This is one part of the list.

Protein sequences, listed by entry. Tags and fused reporters are not part of them. Lines headed by an entry give the natural chain unless they say otherwise; changes in a name come on top.
UniProt Q8N573: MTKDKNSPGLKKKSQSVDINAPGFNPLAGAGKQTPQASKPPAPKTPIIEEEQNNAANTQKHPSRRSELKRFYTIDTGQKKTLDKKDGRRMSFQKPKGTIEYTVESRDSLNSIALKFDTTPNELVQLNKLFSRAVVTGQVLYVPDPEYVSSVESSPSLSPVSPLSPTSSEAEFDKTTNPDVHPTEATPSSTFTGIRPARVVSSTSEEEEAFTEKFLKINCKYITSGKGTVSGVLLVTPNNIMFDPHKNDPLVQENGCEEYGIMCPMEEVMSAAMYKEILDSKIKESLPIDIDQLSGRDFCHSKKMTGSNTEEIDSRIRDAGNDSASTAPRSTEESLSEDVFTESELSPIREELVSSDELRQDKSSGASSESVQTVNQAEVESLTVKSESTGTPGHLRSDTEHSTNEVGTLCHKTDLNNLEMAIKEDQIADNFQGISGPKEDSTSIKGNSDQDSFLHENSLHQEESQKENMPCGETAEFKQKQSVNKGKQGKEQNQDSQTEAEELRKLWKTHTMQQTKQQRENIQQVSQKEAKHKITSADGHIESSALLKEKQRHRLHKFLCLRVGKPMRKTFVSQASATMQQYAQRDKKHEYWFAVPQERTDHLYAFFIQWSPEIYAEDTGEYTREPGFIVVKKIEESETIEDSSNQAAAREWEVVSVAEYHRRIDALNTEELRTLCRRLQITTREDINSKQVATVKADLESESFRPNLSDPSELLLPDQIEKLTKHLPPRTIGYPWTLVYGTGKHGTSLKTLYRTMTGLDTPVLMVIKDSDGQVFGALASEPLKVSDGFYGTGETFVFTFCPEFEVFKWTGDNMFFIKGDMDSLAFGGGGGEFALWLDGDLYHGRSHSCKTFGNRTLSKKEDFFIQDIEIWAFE
UniProt Q96DE0: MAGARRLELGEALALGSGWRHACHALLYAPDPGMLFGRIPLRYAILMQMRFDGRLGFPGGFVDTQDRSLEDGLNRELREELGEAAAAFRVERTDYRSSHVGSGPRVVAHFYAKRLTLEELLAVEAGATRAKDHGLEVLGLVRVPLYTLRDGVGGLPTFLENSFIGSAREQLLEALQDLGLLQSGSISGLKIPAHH
UniProt Q8TB37: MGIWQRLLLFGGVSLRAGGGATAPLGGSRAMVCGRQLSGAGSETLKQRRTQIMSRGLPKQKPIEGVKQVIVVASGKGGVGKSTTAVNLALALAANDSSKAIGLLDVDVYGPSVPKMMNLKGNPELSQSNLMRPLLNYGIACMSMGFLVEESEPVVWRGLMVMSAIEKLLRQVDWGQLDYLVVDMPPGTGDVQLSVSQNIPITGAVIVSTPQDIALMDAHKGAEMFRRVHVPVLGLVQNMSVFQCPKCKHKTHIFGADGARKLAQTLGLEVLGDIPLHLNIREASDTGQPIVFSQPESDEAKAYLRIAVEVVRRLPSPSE
UniProt Q01968: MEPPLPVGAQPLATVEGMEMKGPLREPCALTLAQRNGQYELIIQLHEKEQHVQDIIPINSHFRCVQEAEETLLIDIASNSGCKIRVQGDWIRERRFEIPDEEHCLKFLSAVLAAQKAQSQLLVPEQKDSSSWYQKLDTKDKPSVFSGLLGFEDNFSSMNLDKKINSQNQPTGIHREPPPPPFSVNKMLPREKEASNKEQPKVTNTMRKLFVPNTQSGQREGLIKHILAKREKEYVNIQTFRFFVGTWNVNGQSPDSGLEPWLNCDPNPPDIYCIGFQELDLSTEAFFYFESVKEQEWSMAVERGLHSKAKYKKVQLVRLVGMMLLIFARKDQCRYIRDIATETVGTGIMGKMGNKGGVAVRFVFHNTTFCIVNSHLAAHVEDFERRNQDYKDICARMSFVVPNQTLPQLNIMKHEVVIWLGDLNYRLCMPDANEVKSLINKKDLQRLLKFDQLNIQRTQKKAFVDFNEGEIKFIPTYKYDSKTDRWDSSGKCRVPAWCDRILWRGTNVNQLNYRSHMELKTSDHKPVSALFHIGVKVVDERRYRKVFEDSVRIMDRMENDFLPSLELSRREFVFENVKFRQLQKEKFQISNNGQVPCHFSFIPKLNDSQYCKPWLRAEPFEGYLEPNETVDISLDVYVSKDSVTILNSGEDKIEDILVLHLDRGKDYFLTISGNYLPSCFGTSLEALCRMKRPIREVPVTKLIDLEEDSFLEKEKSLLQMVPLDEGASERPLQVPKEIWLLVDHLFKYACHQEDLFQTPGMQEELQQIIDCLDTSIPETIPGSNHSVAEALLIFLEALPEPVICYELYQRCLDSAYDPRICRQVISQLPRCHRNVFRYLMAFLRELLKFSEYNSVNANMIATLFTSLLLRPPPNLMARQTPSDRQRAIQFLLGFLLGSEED
UniProt P50583: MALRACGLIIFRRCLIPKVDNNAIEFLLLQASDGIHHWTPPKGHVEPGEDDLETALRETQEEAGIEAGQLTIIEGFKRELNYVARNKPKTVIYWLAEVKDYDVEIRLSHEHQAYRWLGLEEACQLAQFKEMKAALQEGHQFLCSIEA
UniProt Q9H6K4: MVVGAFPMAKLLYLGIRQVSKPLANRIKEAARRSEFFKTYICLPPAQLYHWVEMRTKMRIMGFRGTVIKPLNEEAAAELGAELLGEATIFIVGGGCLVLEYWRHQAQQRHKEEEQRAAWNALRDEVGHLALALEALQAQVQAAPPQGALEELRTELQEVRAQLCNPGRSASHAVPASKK
UniProt Q9BZF1: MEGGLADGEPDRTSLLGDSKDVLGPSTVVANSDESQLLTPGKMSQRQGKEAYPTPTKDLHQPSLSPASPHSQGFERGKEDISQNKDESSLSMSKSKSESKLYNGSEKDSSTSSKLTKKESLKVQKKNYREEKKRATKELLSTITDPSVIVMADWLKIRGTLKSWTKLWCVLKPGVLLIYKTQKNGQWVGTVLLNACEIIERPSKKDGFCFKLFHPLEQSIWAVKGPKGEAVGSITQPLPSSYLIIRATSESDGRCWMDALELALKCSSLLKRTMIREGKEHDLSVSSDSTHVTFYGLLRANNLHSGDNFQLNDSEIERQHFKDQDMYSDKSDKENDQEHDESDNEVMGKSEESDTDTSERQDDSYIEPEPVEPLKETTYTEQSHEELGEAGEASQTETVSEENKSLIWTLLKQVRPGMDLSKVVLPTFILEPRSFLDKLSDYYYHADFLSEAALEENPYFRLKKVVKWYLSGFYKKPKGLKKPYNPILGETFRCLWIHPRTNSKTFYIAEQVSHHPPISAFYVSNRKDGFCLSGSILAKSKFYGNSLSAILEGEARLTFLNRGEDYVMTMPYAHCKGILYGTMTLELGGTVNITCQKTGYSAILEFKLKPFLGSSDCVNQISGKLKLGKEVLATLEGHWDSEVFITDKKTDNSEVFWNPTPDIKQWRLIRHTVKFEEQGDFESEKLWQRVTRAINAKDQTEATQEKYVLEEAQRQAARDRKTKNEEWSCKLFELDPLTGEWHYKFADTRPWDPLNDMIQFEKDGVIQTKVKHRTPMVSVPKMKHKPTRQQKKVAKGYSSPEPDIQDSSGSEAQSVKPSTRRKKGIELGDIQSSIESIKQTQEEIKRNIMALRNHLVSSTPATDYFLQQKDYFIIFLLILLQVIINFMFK
UniProt Q9Y6R0: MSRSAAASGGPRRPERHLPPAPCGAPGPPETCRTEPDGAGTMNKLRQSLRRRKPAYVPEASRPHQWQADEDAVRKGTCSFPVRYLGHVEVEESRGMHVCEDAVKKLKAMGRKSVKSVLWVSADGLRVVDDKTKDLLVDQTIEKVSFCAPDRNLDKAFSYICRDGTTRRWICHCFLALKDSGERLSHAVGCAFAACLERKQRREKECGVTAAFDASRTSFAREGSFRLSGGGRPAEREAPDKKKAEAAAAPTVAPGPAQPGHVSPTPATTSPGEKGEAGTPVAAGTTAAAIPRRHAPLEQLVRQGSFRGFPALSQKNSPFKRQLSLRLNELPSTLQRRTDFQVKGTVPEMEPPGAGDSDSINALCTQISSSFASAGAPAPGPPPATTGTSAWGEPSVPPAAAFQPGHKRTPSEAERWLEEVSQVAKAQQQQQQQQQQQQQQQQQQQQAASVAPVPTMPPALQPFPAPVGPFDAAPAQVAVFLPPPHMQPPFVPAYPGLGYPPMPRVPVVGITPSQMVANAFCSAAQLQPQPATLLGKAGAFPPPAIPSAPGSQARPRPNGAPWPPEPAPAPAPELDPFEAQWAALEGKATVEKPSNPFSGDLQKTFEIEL
UniProt O75694: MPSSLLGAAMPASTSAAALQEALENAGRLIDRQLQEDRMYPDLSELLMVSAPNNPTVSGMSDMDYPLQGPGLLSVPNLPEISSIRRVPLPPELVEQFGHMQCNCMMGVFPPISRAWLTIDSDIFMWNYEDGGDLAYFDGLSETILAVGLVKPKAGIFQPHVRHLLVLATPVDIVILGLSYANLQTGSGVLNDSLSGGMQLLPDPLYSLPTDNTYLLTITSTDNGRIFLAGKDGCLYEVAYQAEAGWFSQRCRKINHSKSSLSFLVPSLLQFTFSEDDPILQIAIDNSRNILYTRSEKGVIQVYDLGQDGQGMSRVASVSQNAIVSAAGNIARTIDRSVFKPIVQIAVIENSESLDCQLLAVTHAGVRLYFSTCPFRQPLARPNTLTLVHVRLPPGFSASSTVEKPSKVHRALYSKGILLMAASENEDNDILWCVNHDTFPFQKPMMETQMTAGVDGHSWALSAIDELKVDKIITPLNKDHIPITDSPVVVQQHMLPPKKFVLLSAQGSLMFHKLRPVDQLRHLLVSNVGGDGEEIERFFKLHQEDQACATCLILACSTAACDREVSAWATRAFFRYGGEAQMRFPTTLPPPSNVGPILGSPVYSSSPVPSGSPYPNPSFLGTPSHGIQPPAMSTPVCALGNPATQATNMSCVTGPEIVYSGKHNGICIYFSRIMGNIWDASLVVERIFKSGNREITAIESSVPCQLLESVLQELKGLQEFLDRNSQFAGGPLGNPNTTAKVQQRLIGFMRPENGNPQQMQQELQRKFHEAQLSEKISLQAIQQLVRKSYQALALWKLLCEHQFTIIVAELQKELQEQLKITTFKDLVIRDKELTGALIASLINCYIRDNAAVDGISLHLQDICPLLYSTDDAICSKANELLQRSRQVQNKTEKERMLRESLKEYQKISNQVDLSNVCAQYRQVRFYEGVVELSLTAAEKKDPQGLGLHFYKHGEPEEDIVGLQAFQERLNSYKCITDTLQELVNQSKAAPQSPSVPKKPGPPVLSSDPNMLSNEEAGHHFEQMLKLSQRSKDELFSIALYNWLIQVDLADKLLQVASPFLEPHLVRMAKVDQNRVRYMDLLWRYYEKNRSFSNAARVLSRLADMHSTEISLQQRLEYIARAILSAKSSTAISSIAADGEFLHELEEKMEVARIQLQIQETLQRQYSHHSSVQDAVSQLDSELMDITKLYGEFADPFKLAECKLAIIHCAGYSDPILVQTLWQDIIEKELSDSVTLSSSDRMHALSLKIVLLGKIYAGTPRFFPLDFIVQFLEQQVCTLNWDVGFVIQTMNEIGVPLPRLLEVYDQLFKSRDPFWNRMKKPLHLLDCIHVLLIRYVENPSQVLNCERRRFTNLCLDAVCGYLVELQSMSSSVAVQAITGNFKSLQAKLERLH
UniProt Q9H857: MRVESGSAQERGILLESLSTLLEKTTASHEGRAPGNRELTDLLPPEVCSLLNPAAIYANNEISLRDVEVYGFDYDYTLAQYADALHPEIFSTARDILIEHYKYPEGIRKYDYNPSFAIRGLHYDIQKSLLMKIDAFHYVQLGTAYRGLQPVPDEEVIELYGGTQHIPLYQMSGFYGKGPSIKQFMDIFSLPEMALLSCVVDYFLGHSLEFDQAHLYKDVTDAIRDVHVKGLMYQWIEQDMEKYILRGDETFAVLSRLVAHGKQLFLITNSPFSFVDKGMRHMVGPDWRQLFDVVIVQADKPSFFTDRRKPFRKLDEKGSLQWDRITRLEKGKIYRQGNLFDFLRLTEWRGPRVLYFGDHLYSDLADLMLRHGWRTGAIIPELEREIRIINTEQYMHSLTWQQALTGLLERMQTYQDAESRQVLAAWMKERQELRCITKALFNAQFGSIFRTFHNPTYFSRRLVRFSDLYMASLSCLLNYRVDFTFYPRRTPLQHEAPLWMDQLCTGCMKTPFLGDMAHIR
UniProt P0C025: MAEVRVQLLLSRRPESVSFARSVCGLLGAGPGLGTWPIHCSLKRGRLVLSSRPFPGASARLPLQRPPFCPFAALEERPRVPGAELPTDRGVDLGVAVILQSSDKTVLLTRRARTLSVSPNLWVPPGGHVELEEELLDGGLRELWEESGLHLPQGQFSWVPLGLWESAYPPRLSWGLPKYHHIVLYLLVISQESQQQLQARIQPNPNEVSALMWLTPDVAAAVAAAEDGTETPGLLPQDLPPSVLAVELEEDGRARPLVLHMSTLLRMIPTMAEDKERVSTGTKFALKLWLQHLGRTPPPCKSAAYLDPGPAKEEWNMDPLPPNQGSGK

Key:
Test in all cases: log2 fold change, soluble protein after heating vs DMSO (PISA); higher = thermal stabilisation; K562 cells, 10 uM, 30 min; active = over 0.2 and 3.5 SD of the protein, either way, in both replicates (recomputed)
[1] = compound: NC(=O)Nc1cc(-c2cccc(F)c2)sc1C(=O)N[C@H]1CCCNC1
In short: (§1)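 Values are thermal stability changes relative to control samples and are taken from duplicates. They are stated as log2 fold changes. Before quantification by TMTpro 16plex LC-MS/MS with equalised channel sums, K562 cells at 2×10^6 cells/mL were treated with 10 μM compound for 30 min, heated in aliquots for 3 min across 48°C-58°C, pooled, extracted in PBS with 0.5% NP-40 at 4°C, and centrifuged at 21,000xg for 90 min to give the soluble supernatant.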

[2] = compound: NC(=O)c1cnc(N[C@@H]2CCCC[C@@H]2N)nc1Nc1cccc(-n2nccn2)c1
In short: as §1

[3] = compound: NC1(c2ccc(-c3nc4ccn5c(=O)[nH]nc5c4cc3-c3ccccc3)cc2)CCC1
In short: as §1

[4] = compound: NCC(=O)Nc1ccc(-n2nc(C(F)(F)F)cc2-c2ccc3c(ccc4ccccc43)c2)cc1
In short: as §1

[5] = compound: Nc1ccccc1NC(=O)c1ccc(CNC(=O)OCc2cccnc2)cc1 [entinostat]
In short: as §1

[6] = compound: O=C(CCCCCCC(=O)Nc1ccccc1)NO [vorinostat]
In short: as §1

[7] = compound: O=C(CCCCCCNC(=O)c1cnc(N(c2ccccc2)c2ccccc2Cl)nc1)NO [citarinostat]
In short: as §1

[8] = compound: O=C(O)c1ccc2c(c1)nc(Nc1cccc(Cl)c1)c1ccncc12 [silmitasertib]
In short: as §1

[9] = compound: O=C1NC(=O)C(c2cnc3ccccn23)=C1c1cn2c3c(cc(F)cc13)CN(C(=O)N1CCCCC1)CC2
In short: as §1

[10] = compound: c1cc(OCCN2CCCCC2)cc(-c2n[nH]c3ccc(-c4nnc[nH]4)cc23)c1
In short: as §1

| Target | log2 fold change [1] | log2 fold change [2] | log2 fold change [3] | log2 fold change [4] | log2 fold change [5] | log2 fold change [6] | log2 fold change [7] | log2 fold change [8] | log2 fold change [9] | log2 fold change [10] |
| --- | --- | --- | --- | --- | --- | --- | --- | --- | --- | --- |
| NUP205 (UniProt Q92621) | inactive: -0.042 | inactive: -0.023 | inactive: -0.075 | inactive: -0.1 | inactive: 0.017 | inactive: 0.041 | inactive: 0.101 | inactive: 0.058 | inactive: -0.073 | inactive: -0.069 |
| OXR1 (UniProt Q8N573) | inactive: 0.03 | inactive: 0 | inactive: -0.157 | inactive: -0.008 | inactive: 0.023 | inactive: -0.029 | inactive: 0.062 | inactive: -0.009 | inactive: -0.044 | inactive: -0.001 |
| NT5C2 (UniProt P49902) | inactive: 0.061 | inactive: 0.006 | inactive: 0.009 | inactive: 0.007 | inactive: -0.04 | inactive: -0.003 | inactive: 0.073 | inactive: -0.043 | inactive: -0.011 | inactive: 0.005 |
| NUDT16 (UniProt Q96DE0) | inactive: 0.02 | inactive: 0.08 | inactive: -0.01 | active: 0.205 | inactive: 0 | inactive: -0.069 | inactive: 0.018 | inactive: 0.016 | inactive: -0.106 | inactive: 0.034 |
| ODR4 (UniProt Q5SWX8) | inactive: -0.039 | inactive: 0.03 | inactive: -0.139 | inactive: -0.033 | inactive: -0.043 | inactive: -0.029 | inactive: 0.025 | inactive: -0.015 | inactive: -0.014 | inactive: -0.049 |
| NSMCE4A (UniProt Q9NXX6) | inactive: 0.181 | inactive: 0.059 | inactive: 0 | inactive: -0.023 | inactive: -0.087 | inactive: -0.155 | inactive: -0.018 | inactive: 0.149 | inactive: -0.038 | inactive: -0.067 |
| NUBPL (UniProt Q8TB37) | inactive: 0.101 | inactive: 0.014 | inactive: 0.017 | inactive: -0.036 | inactive: 0.028 | inactive: -0.034 | inactive: 0.1 | inactive: 0.069 | inactive: 0.03 | inactive: -0.013 |
| OCRL (UniProt Q01968) | inactive: -0.07 | inactive: 0.011 | inactive: -0.046 | inactive: 0.024 | inactive: 0.01 | inactive: 0.018 | inactive: 0.12 | inactive: -0.182 | inactive: 0.024 | inactive: -0.1 |
| NUDT5 (UniProt Q9UKK9) | inactive: 0.061 | inactive: 0.026 | inactive: 0.014 | inactive: 0.023 | inactive: 0.007 | inactive: -0.047 | inactive: 0.037 | inactive: -0.001 | inactive: 0.019 | inactive: -0.025 |
| NUDT2 (UniProt P50583) | inactive: -0.026 | inactive: 0.065 | inactive: -0.035 | inactive: -0.101 | inactive: 0.048 |  |  | inactive: 0.043 | inactive: -0.052 |  |
| OPA3 (UniProt Q9H6K4) | inactive: -0.057 | inactive: 0.026 | inactive: 0.013 | inactive: -0.007 | inactive: 0.007 |  | inactive: 0.014 | inactive: 0.086 | inactive: -0.035 | inactive: -0.039 |
| OSBPL8 (UniProt Q9BZF1) | inactive: -0.06 | inactive: -0.03 | inactive: 0.063 | inactive: 0.042 | inactive: 0.012 | inactive: 0.049 | inactive: 0.005 | inactive: 0 | inactive: 0.079 | inactive: -0.129 |
| NUMBL (UniProt Q9Y6R0) | inactive: -0.101 | inactive: 0.016 | inactive: -0.154 | inactive: 0.002 | inactive: 0.01 | inactive: 0.078 |  | inactive: -0.037 | inactive: 0.016 |  |
| NUP155 (UniProt O75694) | inactive: 0.003 | inactive: -0.015 | inactive: -0.198 | inactive: -0.049 | inactive: 0.048 | inactive: 0.129 | inactive: 0.098 | inactive: -0.032 | inactive: -0.009 | inactive: 0.004 |
| NT5DC2 isoform 2 (UniProt Q9H857) | inactive: -0.028 | inactive: 0.003 | inactive: -0.035 | inactive: -0.011 | inactive: -0.006 | inactive: -0.004 | inactive: -0.001 | inactive: -0.014 | inactive: -0.029 | inactive: -0.008 |
| NUDT17 (UniProt P0C025) | inactive: 0.168 | inactive: 0.072 | inactive: -0.004 | inactive: 0.165 | inactive: 0.198 |  |  | inactive: 0.041 | inactive: -0.217 |  |

A section taken from the entries so far, for reference:

| Target | log2 fold change [1] | log2 fold change [2] | log2 fold change [3] | log2 fold change [4] | log2 fold change [5] | log2 fold change [6] | log2 fold change [7] | log2 fold change [8] | log2 fold change [9] | log2 fold change [10] |
| --- | --- | --- | --- | --- | --- | --- | --- | --- | --- | --- |
| OPA3 (UniProt Q9H6K4) | inactive: -0.057 | inactive: 0.026 | inactive: 0.013 | inactive: -0.007 | inactive: 0.007 |  | inactive: 0.014 | inactive: 0.086 | inactive: -0.035 | inactive: -0.039 |
| OSBPL8 (UniProt Q9BZF1) | inactive: -0.06 | inactive: -0.03 | inactive: 0.063 | inactive: 0.042 | inactive: 0.012 | inactive: 0.049 | inactive: 0.005 | inactive: 0 | inactive: 0.079 | inactive: -0.129 |
